Reference: PMC4488268
No constants are given. Whether binding was seen depends on the method and setting. For some of these results: Binding seen in cells or lysates may run through a third protein. Some results given as binding are weak or reduced against the parent protein; the word gives no strength. For some of these results: Sequences can lack the tags named with a protein.

T1: full-length NLRP7 bait of the LexA-based yeast two-hybrid screen (human) (UniProt Q8WX94)
T1 sequence: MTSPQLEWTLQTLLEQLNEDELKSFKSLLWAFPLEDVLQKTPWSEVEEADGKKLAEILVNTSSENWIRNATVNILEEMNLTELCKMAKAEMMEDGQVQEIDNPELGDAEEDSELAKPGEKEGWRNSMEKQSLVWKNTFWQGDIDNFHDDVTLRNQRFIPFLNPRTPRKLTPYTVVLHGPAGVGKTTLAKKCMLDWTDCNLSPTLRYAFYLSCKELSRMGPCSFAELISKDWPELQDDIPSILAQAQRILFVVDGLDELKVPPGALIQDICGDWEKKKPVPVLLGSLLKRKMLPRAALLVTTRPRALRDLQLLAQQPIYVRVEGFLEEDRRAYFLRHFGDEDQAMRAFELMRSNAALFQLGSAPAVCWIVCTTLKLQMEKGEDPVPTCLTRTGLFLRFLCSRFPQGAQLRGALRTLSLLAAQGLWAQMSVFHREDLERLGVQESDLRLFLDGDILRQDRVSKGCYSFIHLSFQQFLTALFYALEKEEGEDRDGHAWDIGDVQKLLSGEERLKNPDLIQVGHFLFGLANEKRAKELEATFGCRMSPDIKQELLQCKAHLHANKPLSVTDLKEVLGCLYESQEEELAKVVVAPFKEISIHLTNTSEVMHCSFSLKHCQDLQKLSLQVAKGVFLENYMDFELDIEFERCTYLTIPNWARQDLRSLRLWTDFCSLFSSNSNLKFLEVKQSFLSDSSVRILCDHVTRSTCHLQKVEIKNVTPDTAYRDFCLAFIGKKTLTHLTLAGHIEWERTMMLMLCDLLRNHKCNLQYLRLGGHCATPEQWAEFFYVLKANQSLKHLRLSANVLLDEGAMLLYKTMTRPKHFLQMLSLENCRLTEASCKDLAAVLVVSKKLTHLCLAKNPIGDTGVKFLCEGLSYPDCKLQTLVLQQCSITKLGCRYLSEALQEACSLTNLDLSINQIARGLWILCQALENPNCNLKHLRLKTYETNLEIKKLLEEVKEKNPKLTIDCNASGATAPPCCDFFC

T2: full-length NLRP7 L398R for co-immunoprecipitation (human) (UniProt Q8WX94)
T2 sequence: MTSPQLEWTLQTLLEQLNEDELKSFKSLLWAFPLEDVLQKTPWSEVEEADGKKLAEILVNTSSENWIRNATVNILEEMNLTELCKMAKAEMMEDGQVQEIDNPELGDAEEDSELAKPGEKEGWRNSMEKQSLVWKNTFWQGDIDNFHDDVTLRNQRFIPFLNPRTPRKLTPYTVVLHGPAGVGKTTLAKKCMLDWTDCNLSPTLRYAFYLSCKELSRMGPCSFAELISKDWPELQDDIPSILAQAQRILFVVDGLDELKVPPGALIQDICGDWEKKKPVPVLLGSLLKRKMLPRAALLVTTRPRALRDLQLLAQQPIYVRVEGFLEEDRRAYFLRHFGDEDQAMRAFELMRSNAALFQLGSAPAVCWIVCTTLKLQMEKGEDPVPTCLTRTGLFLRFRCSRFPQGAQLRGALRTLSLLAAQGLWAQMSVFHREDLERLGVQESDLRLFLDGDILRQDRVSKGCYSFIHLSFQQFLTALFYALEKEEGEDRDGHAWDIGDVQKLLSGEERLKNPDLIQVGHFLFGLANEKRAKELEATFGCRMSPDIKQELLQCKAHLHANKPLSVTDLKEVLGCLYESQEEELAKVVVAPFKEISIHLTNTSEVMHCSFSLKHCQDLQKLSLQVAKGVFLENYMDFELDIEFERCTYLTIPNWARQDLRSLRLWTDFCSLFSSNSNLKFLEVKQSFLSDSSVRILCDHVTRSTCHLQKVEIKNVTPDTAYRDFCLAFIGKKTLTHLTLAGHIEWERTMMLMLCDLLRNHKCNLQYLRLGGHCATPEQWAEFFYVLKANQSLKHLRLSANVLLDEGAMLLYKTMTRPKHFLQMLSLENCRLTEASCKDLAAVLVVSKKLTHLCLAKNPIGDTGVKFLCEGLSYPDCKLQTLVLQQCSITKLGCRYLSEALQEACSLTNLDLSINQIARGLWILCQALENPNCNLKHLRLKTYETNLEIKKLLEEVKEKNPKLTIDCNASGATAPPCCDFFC

T3: full-length ZBTB16 fused to the GAL4 DNA-binding domain (human) (UniProt Q05516)
T3 sequence: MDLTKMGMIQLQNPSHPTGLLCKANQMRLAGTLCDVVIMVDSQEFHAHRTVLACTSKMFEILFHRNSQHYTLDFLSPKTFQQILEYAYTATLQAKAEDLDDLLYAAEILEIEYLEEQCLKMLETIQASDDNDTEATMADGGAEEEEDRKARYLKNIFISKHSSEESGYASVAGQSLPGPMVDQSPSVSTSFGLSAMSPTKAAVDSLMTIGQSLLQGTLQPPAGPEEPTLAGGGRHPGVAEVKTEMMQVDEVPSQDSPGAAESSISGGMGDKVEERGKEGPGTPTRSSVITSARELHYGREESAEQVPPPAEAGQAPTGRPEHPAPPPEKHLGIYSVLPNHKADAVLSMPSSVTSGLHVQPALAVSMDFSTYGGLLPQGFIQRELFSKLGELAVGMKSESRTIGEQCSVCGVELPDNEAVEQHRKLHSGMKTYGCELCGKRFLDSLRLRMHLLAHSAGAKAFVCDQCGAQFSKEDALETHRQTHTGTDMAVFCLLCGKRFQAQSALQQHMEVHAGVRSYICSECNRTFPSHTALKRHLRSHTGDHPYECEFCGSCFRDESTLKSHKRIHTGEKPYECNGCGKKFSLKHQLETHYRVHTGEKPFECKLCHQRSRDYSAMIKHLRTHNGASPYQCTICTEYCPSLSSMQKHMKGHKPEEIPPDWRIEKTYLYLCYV


How the values were obtained:
[1] = target: T1, full-length NLRP7 bait of the LexA-based yeast two-hybrid screen (human); test: two-hybrid; LexA-based DUALhybrid screen (Dualsystems); full-length NLRP7 as bait against a human ovarian cDNA library (Clontech Cat#638822); ß-galactosidase activity and growth on SDhigh (SD-ade)
[2] = target: T2, full-length NLRP7 L398R for co-immunoprecipitation (human); test: co-IP; data not shown; ZBTB16 with mutated full-length NLRP7 constructs
[3] = target: T3, full-length ZBTB16 fused to the GAL4 DNA-binding domain (human); test: two-hybrid; … GAL4 system (Clontech), yeast strain AH109; full-length ZBTB16 on the GAL4 DNA-binding domain (pGBKT7) as bait, NLRP7 constructs on the GAL4 activation domain (pGADT7); growth on SDhigh

Row | Binder | binding [3] | further results
1 | ZBTB16 Prey#1 (268–673) from the human ovarian cDNA library (domain or fragment, UniProt Q05516 268-673) MGDKVEERGKEGPGTPTRSSVITSARELHYGREESAEQVPPPAEAGQAPTGRPEHPAPPPEKHLGIYSVLPNHKADAVLSMPSSVTSGLHVQPALAVSMDFSTYGGLLPQGFIQRELFSKLGELAVGMKSESRTIGEQCSVCGVELPDNEAVEQHRKLHSGMKTYGCELCGKRFLDSLRLRMHLLAHSAGAKAFVCDQCGAQFSKEDALETHRQTHTGTDMAVFCLLCGKRFQAQSALQQHMEVHAGVRSYICSECNRTFPSHTALKRHLRSHTGDHPYECEFCGSCFRDESTLKSHKRIHTGEKPYECNGCGKKFSLKHQLETHYRVHTGEKPFECKLCHQRSRDYSAMIKHLRTHNGASPYQCTICTEYCPSLSSMQKHMKGHKPEEIPPDWRIEKTYLYLCYV |  | binding [1]: binds
2 | full-length ZBTB16, Myc-tagged (protein, UniProt Q05516 1-673) MDLTKMGMIQLQNPSHPTGLLCKANQMRLAGTLCDVVIMVDSQEFHAHRTVLACTSKMFEILFHRNSQHYTLDFLSPKTFQQILEYAYTATLQAKAEDLDDLLYAAEILEIEYLEEQCLKMLETIQASDDNDTEATMADGGAEEEEDRKARYLKNIFISKHSSEESGYASVAGQSLPGPMVDQSPSVSTSFGLSAMSPTKAAVDSLMTIGQSLLQGTLQPPAGPEEPTLAGGGRHPGVAEVKTEMMQVDEVPSQDSPGAAESSISGGMGDKVEERGKEGPGTPTRSSVITSARELHYGREESAEQVPPPAEAGQAPTGRPEHPAPPPEKHLGIYSVLPNHKADAVLSMPSSVTSGLHVQPALAVSMDFSTYGGLLPQGFIQRELFSKLGELAVGMKSESRTIGEQCSVCGVELPDNEAVEQHRKLHSGMKTYGCELCGKRFLDSLRLRMHLLAHSAGAKAFVCDQCGAQFSKEDALETHRQTHTGTDMAVFCLLCGKRFQAQSALQQHMEVHAGVRSYICSECNRTFPSHTALKRHLRSHTGDHPYECEFCGSCFRDESTLKSHKRIHTGEKPYECNGCGKKFSLKHQLETHYRVHTGEKPFECKLCHQRSRDYSAMIKHLRTHNGASPYQCTICTEYCPSLSSMQKHMKGHKPEEIPPDWRIEKTYLYLCYV |  | binding [2]: binds
3 | full-length NLRP7 L398R fused to the GAL4 activation domain (protein, UniProt Q8WX94 1-980) MTSPQLEWTLQTLLEQLNEDELKSFKSLLWAFPLEDVLQKTPWSEVEEADGKKLAEILVNTSSENWIRNATVNILEEMNLTELCKMAKAEMMEDGQVQEIDNPELGDAEEDSELAKPGEKEGWRNSMEKQSLVWKNTFWQGDIDNFHDDVTLRNQRFIPFLNPRTPRKLTPYTVVLHGPAGVGKTTLAKKCMLDWTDCNLSPTLRYAFYLSCKELSRMGPCSFAELISKDWPELQDDIPSILAQAQRILFVVDGLDELKVPPGALIQDICGDWEKKKPVPVLLGSLLKRKMLPRAALLVTTRPRALRDLQLLAQQPIYVRVEGFLEEDRRAYFLRHFGDEDQAMRAFELMRSNAALFQLGSAPAVCWIVCTTLKLQMEKGEDPVPTCLTRTGLFLRFRCSRFPQGAQLRGALRTLSLLAAQGLWAQMSVFHREDLERLGVQESDLRLFLDGDILRQDRVSKGCYSFIHLSFQQFLTALFYALEKEEGEDRDGHAWDIGDVQKLLSGEERLKNPDLIQVGHFLFGLANEKRAKELEATFGCRMSPDIKQELLQCKAHLHANKPLSVTDLKEVLGCLYESQEEELAKVVVAPFKEISIHLTNTSEVMHCSFSLKHCQDLQKLSLQVAKGVFLENYMDFELDIEFERCTYLTIPNWARQDLRSLRLWTDFCSLFSSNSNLKFLEVKQSFLSDSSVRILCDHVTRSTCHLQKVEIKNVTPDTAYRDFCLAFIGKKTLTHLTLAGHIEWERTMMLMLCDLLRNHKCNLQYLRLGGHCATPEQWAEFFYVLKANQSLKHLRLSANVLLDEGAMLLYKTMTRPKHFLQMLSLENCRLTEASCKDLAAVLVVSKKLTHLCLAKNPIGDTGVKFLCEGLSYPDCKLQTLVLQQCSITKLGCRYLSEALQEACSLTNLDLSINQIARGLWILCQALENPNCNLKHLRLKTYETNLEIKKLLEEVKEKNPKLTIDCNASGATAPPCCDFFC | binds | 
4 | full-length ZBTB16 fused to the GAL4 DNA-binding domain (protein, UniProt Q05516 1-673) MDLTKMGMIQLQNPSHPTGLLCKANQMRLAGTLCDVVIMVDSQEFHAHRTVLACTSKMFEILFHRNSQHYTLDFLSPKTFQQILEYAYTATLQAKAEDLDDLLYAAEILEIEYLEEQCLKMLETIQASDDNDTEATMADGGAEEEEDRKARYLKNIFISKHSSEESGYASVAGQSLPGPMVDQSPSVSTSFGLSAMSPTKAAVDSLMTIGQSLLQGTLQPPAGPEEPTLAGGGRHPGVAEVKTEMMQVDEVPSQDSPGAAESSISGGMGDKVEERGKEGPGTPTRSSVITSARELHYGREESAEQVPPPAEAGQAPTGRPEHPAPPPEKHLGIYSVLPNHKADAVLSMPSSVTSGLHVQPALAVSMDFSTYGGLLPQGFIQRELFSKLGELAVGMKSESRTIGEQCSVCGVELPDNEAVEQHRKLHSGMKTYGCELCGKRFLDSLRLRMHLLAHSAGAKAFVCDQCGAQFSKEDALETHRQTHTGTDMAVFCLLCGKRFQAQSALQQHMEVHAGVRSYICSECNRTFPSHTALKRHLRSHTGDHPYECEFCGSCFRDESTLKSHKRIHTGEKPYECNGCGKKFSLKHQLETHYRVHTGEKPFECKLCHQRSRDYSAMIKHLRTHNGASPYQCTICTEYCPSLSSMQKHMKGHKPEEIPPDWRIEKTYLYLCYV | binds | 
